In doi:10.1101/266833:
Like-named read-outs stand apart in the source and are kept apart here. Results are given in words; binding and its absence hold for the method and conditions named. In cells and extracts the contact can be indirect. A yes stands for co-enrichment or nearness to the bait. Other partners may have been found.

Columns and labels:
Experiment in all cases: affinity purification with mass spectrometry
Ebs1-TAP (S. cerevisiae) = molecular target: T1, Ebs1-TAP (S. cerevisiae) (UniProt Q03466)
T1 sequence: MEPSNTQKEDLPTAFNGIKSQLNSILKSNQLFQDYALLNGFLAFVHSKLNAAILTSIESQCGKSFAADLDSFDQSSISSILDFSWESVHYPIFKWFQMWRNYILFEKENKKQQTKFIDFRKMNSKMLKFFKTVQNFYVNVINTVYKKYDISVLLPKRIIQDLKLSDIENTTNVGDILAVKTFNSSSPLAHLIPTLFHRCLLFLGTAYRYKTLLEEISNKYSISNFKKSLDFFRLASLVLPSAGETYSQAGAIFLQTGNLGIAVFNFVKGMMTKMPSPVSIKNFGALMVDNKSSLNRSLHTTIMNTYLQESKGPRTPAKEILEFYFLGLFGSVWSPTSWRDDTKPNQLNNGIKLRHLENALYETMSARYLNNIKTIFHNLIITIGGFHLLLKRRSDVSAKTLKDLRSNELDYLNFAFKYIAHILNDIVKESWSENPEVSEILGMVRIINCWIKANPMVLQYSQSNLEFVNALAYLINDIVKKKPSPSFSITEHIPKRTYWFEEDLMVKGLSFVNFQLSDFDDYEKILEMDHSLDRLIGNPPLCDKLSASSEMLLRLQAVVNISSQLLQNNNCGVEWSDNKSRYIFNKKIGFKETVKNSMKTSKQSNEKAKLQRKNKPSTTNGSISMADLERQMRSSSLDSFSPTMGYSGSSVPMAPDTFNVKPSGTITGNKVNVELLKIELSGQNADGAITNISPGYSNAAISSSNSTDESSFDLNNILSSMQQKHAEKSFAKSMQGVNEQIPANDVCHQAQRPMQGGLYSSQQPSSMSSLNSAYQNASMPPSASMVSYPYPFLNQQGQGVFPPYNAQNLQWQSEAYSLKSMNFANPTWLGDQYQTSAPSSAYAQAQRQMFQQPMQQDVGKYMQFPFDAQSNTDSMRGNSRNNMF

[1] = molecular target: T2, TAP-Upf1-CH (2-208) (S. cerevisiae) (UniProt P30771)
T2 sequence: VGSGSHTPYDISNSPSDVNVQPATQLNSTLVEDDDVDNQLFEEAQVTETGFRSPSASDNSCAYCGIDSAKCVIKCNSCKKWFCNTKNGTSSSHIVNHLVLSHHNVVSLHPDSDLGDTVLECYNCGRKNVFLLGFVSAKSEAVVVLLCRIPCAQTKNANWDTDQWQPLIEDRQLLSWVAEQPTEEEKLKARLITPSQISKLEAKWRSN

[2] = molecular target: T2, TAP-Upf1-CH (2-208) (S. cerevisiae); remark: listed apart in the source
Upf1-TAP (S. cerevisiae) [3] = molecular target: T3, Upf1-TAP (S. cerevisiae) (UniProt P30771)
T3 sequence: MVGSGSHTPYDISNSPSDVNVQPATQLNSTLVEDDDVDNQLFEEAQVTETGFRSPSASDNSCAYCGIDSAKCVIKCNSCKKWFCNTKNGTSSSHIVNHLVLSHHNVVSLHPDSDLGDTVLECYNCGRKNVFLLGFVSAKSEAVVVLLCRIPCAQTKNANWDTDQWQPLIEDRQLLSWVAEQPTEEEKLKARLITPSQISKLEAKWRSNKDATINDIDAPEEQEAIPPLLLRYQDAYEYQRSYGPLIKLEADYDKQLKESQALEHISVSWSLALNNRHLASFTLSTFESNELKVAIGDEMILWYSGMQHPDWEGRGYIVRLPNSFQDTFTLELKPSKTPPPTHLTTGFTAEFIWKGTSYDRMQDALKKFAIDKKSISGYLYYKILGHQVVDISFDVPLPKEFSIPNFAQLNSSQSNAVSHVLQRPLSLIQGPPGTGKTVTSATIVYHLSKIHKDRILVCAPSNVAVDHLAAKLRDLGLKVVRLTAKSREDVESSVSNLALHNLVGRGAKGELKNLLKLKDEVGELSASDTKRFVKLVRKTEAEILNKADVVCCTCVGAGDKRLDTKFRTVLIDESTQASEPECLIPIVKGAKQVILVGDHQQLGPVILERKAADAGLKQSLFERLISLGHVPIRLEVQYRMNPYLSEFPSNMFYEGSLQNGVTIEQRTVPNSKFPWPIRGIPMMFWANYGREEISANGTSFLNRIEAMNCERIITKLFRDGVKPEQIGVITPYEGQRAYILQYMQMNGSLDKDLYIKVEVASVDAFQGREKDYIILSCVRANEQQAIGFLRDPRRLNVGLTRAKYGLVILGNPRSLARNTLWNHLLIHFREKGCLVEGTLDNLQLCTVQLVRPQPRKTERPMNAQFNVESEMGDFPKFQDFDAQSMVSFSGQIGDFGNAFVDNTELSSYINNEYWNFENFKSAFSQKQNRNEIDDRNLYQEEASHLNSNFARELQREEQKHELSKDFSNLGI

[4] = molecular target: T4, TAP-Upf1-FL (S. cerevisiae) (UniProt P30771)
T4 sequence: T3 sequence

Upf1-TAP (S. cerevisiae) [5] = molecular target: T3, Upf1-TAP (S. cerevisiae); remark: listed apart in the source
Dcp1-TAP (S. cerevisiae) = molecular target: T5, Dcp1-TAP (S. cerevisiae) (UniProt Q12517)
T5 sequence: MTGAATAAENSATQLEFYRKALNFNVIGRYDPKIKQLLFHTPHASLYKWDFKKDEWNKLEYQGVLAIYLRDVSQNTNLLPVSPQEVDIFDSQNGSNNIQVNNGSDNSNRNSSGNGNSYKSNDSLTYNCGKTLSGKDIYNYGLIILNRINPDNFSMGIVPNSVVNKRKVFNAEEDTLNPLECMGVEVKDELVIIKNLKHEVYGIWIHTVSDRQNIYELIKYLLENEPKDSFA

[6] = molecular target: T4, TAP-Upf1-FL (S. cerevisiae); remark: listed apart in the source

Measured: binding

B1: Dcp2 (enzyme, UniProt P53550 1-970)
chain: MSLPLRHALENVTSVDRILEDLLVRFIINCPNEDLSSVERELFHFEEASWFYTDFIKLMNPTLPSLKIKSFAQLIIKLCPLVWKWDIRVDEALQQFSKYKKSIPVRGAAIFNENLSKILLVQGTESDSWSFPRGKISKDENDIDCCIREVKEEIGFDLTDYIDDNQFIERNIQGKNYKIFLISGVSEVFNFKPQVRNEIDKIEWFDFKKISKTMYKSNIKYYLINSMMRPLSMWLRHQRQIKNEDQLKSYAEEQLKLLLGITKEEQIDPGRELLNMLHTAVQANSNNNAVSNGQVPSSQELQHLKEQSGEHNQQKDQQSSFSSQQQPSIFPSLSEPFANNKNVIPPTMPMANVFMSNPQLFATMNGQPFAPFPFMLPLTNNSNSANPIPTPVPPNFNAPPNPMAFGVPNMHNLSGPAVSQPFSLPPAPLPRDSGYSSSSPGQLLDILNSKKPDSNVQSSKKPKLKILQRGTDLNSIKQNNNDETAHSNSQALLDLLKKPTSSQKIHASKPDTSFLPNDSVSGIQDAEYEDFESSSDEEVETARDERNSLNVDIGVNVMPSEKDSRRSQKEKPRNDASKTNLNASAESNSVEWGPGKSSPSTQSKQNSSVGMQNKYRQEIHIGDSDAYEVFESSSDEEDGKKLEELEQTQDNSKLISQDILKENNFQDGEVPHRDMPTESNKSINETVGLSSTTNTVKKVPKVKILKRGETFASLANDKKAFDSSSNVSSSKDLLQMLRNPISSTVSSNQQSPKSQHLSGDEEIMMMLKRNSVSKPQNSEENASTSSINDANASELLGMLKQKEKDITAPKQPYNVDSYSQKNSAKGLLNILKKNDSTGYPRTEGGPSSEMSTSMKRNDATNNQELDKNSTELLNYLKPKPLNDGYENISNKDSSHELLNILHGNKNSSAFNNNVYATDGYSLASDNNENSSNKLLNMLQNRSSAINEPNFDVRSNGTSGSNELLSILHRK
binds: Ebs1-TAP (S. cerevisiae) | [1] | [2]

B2: Edc3 (protein, UniProt P39998 1-551)
chain: MSQFVGFGVQVELKDGKLIQGKIAKATSKGLTLNDVQFGDGGKSQAFKVRASRLKDLKVLTVASQSGKRKQQRQQQQQNDYNQNRGEHIDWQDDDVSKIKQQEDFDFQRNLGMFNKKDVFAQLKQNDDILPENRLQGHNRKQTQLQQNNYQNDELVIPDAKKDSWNKISSRNEQSTHQSQPQQDAQDDLVLEDDEHEYDVDDIDDPKYLPITQSLNITHLIHSATNSPSINDKTKGTVINDKDQVLAKLGQMIISQSRSNSTSLPAANKQTTIRSKNTKQNIPMATPVQLLEMESITSEFFSINSAGLLENFAVNASFFLKQKLGGRARLRLQNSNPEPLVVILASDSNRSGAKALALGRHLCQTGHIRVITLFTCSQNELQDSMVKKQTDIYKKCGGKIVNSVSSLESAMETLNSPVEIVIDAMQGYDCTLSDLAGTSEVIESRIKSMISWCNKQRGSTKVWSLDIPNGFDAGSGMPDIFFSDRIEATGIICSGWPLIAINNLIANLPSLEDAVLIDIGIPQGAYSQRTSLRKFQNCDLFVTDGSLLLDL
binds: all assays above

B3: Hrr25 (enzyme, UniProt P29295 1-494)
chain: MDLRVGRKFRIGRKIGSGSFGDIYHGTNLISGEEVAIKLESIRSRHPQLDYESRVYRYLSGGVGIPFIRWFGREGEYNAMVIDLLGPSLEDLFNYCHRRFSFKTVIMLALQMFCRIQYIHGRSFIHRDIKPDNFLMGVGRRGSTVHVIDFGLSKKYRDFNTHRHIPYRENKSLTGTARYASVNTHLGIEQSRRDDLESLGYVLIYFCKGSLPWQGLKATTKKQKYDRIMEKKLNVSVETLCSGLPLEFQEYMAYCKNLKFDEKPDYLFLARLFKDLSIKLEYHNDHLFDWTMLRYTKAMVEKQRDLLIEKGDLNANSNAASASNSTDNKSETFNKIKLLAMKKFPTHFHYYKNEDKHNPSPEEIKQQTILNNNAASSLPEELLNALDKGMENLRQQQPQQQVQSSQPQPQPQQLQQQPNGQRPNYYPEPLLQQQQRDSQEQQQQVPMATTRATQYPPQINSNNFNTNQASVPPQMRSNPQQPPQDKPAGQSIWL
binds: Upf1-TAP (S. cerevisiae) [3] | Upf1-TAP (S. cerevisiae) [5] | Ebs1-TAP (S. cerevisiae) | Dcp1-TAP (S. cerevisiae)

B4: Dcp1 (protein, UniProt Q12517 1-231)
chain: T5 sequence
not listed: Dcp1-TAP (S. cerevisiae)
binds: all other assays above
